Assay results as given in paper PMC12700780, “The PavDREB1E–PavD8–PavHY5 module integrates light and gibberellin signals to regulate sweet cherry anthocyanin biosynthesis”.

By UniProt entry, the sequences of proteins in these tests, tags left out. Where a name states a change or a piece, a line headed by the entry shows the natural chain unless it says otherwise.
UniProt A0A6P5RSY3: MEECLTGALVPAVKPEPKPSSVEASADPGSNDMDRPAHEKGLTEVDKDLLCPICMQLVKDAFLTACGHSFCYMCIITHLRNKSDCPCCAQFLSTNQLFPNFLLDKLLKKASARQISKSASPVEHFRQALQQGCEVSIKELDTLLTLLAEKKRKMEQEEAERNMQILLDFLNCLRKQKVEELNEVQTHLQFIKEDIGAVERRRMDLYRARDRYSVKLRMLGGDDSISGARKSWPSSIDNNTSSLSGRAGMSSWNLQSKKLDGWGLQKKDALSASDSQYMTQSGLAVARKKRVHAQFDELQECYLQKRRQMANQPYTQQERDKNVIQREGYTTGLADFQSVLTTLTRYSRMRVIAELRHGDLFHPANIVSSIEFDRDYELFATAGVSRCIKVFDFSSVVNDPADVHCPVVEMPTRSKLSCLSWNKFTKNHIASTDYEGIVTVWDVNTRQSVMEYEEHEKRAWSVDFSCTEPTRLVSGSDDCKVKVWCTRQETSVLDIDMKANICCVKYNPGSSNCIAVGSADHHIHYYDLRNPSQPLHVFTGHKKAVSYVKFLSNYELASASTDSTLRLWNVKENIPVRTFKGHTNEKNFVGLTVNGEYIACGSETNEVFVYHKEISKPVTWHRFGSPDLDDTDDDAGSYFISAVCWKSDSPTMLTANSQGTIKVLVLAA
UniProt A0A6P5SVV0: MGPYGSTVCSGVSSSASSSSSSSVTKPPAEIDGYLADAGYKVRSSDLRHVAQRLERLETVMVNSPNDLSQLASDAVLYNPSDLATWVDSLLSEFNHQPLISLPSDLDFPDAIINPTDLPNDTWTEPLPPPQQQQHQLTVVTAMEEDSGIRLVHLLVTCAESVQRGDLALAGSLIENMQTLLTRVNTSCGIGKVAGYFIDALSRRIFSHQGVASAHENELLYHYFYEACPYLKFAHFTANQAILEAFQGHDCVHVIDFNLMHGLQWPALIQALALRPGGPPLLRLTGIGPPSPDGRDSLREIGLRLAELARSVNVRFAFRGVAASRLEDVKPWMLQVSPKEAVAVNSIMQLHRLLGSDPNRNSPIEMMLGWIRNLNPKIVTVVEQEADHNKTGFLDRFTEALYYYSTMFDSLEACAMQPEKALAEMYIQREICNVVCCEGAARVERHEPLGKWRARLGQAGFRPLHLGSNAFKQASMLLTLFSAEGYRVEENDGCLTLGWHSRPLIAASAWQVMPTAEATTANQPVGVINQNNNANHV
UniProt A0A6P5RM44: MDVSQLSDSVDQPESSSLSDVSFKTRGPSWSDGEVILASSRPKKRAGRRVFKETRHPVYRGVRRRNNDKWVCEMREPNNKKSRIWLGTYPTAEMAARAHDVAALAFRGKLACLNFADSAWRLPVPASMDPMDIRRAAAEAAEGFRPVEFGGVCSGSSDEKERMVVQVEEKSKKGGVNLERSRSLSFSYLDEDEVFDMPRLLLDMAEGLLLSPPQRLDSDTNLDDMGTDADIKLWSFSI

Assays:
[1] = molecular target: PavD8-His (sweet cherry (Prunus avium)); experiment: pull-down; His pull-down: His-tagged protein incubated with GST-tagged protein, pulled down with His agarose beads, immunoblot with anti-GST and anti-His; both purified
[2] = molecular target: PavDREB1E-GST (sweet cherry (Prunus avium)); experiment: pull-down; GST pull-down: GST-tagged protein immobilised on glutathione agarose, incubated with His-tagged protein; in Fig. 5I a mixture of PavHY5-MBP (increasing amounts) and PavD8-His was added to PavDREB1E-GST on glutathione beads; both purified

binding [1] | binding [2] | Substance
binds |  | PavCOP1-2-GST (from UniProt A0A6P5RSY3)
 | binds | PavD8-His (from UniProt A0A6P5SVV0)
binds |  | PavDREB1E-GST (from UniProt A0A6P5RM44)

These are yes or no findings as the source states them, for the method shown. Binding calls can cover weak binding; strength is not graded here.
